# Laboratory results: the supplement of paper PMC8728848
# This is one part of the list.
# Assays:
# Test in all cases: glycan array binding signal (z-score within array); higher = stronger binding
# Settings in all cases: glycan notation: IUPAC condensed, linker removed
# [1] = target: Gal(b1-3)GlcNAc(b1-3)Gal(b1-4)GlcNAc(b1-3)Gal(b1-4)GlcNAc(b1-2)[Gal(b1-3)GlcNAc(b1-3)Gal(b1-4)GlcNAc(b1-3)Gal(b1-4)GlcNAc(b1-6)]Man(a1-6)[Gal(b1-3)GlcNAc(b1-3)Gal(b1-4)GlcNAc(b1-3)Gal(b1-4)GlcNAc(b1-2)Man(a1-3)]Man(b1-4)GlcNAc(b1-4)[Fuc(a1-6)]GlcNAc
# How it was run: (§1)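 Negative Z-scores can be read as non-binding. The Z-score is calculated within each array and then averaged across arrays of one protein sequence at different concentrations or buffers and across linkers. Arrays, 3228 in all, were curated from the Consortium for Functional Glycomics database and kept only where the protein sequence was available.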
# [2] = target: Gal(b1-3)GlcNAc(b1-3)Gal(b1-4)GlcNAc(b1-6)[Gal(b1-3)GlcNAc(b1-3)]Gal(b1-4)Glc
# How it was run: as §1
# [3] = target: Gal(b1-3)GlcNAc(b1-3)Gal(b1-4)[Fuc(a1-3)]GlcNAc
# How it was run: as §1
# [4] = target: Gal(b1-3)GlcNAc(b1-3)Gal(b1-4)[Fuc(a1-3)]GlcNAc(b1-6)[Gal(b1-3)GlcNAc(b1-3)]Gal(b1-4)Glc
# How it was run: as §1
# [5] = target: Gal(b1-3)GlcNAc(b1-3)GalNAc
# How it was run: as §1
# [6] = target: Gal(b1-3)GlcNAc(b1-6)Gal(b1-4)GlcNAc
# How it was run: as §1
# [7] = target: Gal(b1-3)GlcNAc(b1-6)GalNAc
# How it was run: as §1
# [8] = target: Gal(b1-3)GlcNAc(b1-6)[Gal(b1-3)]GalNAc
# How it was run: as §1
# [9] = target: Gal(b1-3)GlcNAc6S
# How it was run: as §1
# [10] = target: Gal(b1-3)[Fuc(a1-4)]GlcNAc
# How it was run: as §1
# [11] = target: Gal(b1-3)[Fuc(a1-4)]GlcNAc(b1-2)Man
# How it was run: as §1
# [12] = target: Gal(b1-3)[Fuc(a1-4)]GlcNAc(b1-2)Man(a1-3)[Gal(b1-3)[Fuc(a1-4)]GlcNAc(b1-2)Man(a1-6)]Man(b1-4)GlcNAc(b1-4)[Fuc(a1-6)]GlcNAc
# How it was run: as §1
# [13] = target: Gal(b1-3)[Fuc(a1-4)]GlcNAc(b1-3)Gal(b1-3)[Fuc(a1-4)]GlcNAc
# How it was run: as §1
# [14] = target: Gal(b1-3)[Fuc(a1-4)]GlcNAc(b1-3)Gal(b1-4)[Fuc(a1-3)]GlcNAc
# How it was run: as §1
# [15] = target: Gal(b1-3)[Fuc(a1-4)]GlcNAc(b1-6)GalNAc
# How it was run: as §1
# [16] = target: Gal(b1-3)[GlcNAc(b1-6)]GalNAc
# How it was run: as §1
# [17] = target: Gal(b1-3)[Neu5Ac(a2-6)]GalNAc
# How it was run: as §1
# [18] = target: Gal(b1-3)[Neu5Ac(a2-6)]GlcNAc(b1-4)Gal(b1-4)Glc
# How it was run: as §1
# [19] = target: Gal(b1-3)[Neu5Ac(b2-6)]GalNAc
# How it was run: as §1
# [20] = target: Gal(b1-4)Gal
# How it was run: as §1
# [21] = target: Gal(b1-4)GalNAc(a1-3)[Fuc(a1-2)]Gal(b1-4)GlcNAc
# How it was run: as §1
# [22] = target: Gal(b1-4)GalNAc(b1-3)[Fuc(a1-2)]Gal(b1-4)GlcNAc
# How it was run: as §1
# [23] = target: Gal(b1-4)Glc
# How it was run: as §1
# [24] = target: Gal(b1-4)Glc6S
# How it was run: as §1
# [25] = target: Gal(b1-4)GlcNAc
# How it was run: as §1
# [26] = target: Gal(b1-4)GlcNAc(a1-6)Gal(b1-4)GlcNAc
# How it was run: as §1
# [27] = target: Gal(b1-4)GlcNAc(b1-2)Man
# How it was run: as §1
# [28] = target: Gal(b1-4)GlcNAc(b1-2)Man(a1-3)Man(b1-4)GlcNAc(b1-4)GlcNAc
# How it was run: as §1
# [29] = target: Gal(b1-4)GlcNAc(b1-2)Man(a1-3)[Gal(b1-4)GlcNAc(b1-2)Man(a1-6)]Man(b1-4)GlcNAc(b1-4)GlcNAc
# How it was run: as §1
# [30] = target: Gal(b1-4)GlcNAc(b1-2)Man(a1-3)[Gal(b1-4)GlcNAc(b1-2)Man(a1-6)]Man(b1-4)GlcNAc(b1-4)[Fuc(a1-6)]GlcNAc
# How it was run: as §1
# [31] = target: Gal(b1-4)GlcNAc(b1-2)Man(a1-3)[Gal(b1-4)GlcNAc(b1-2)Man(a1-6)][Gal(b1-4)GlcNAc(b1-4)]Man(b1-4)GlcNAc(b1-4)[Fuc(a1-6)]GlcNAc
# How it was run: as §1
# [32] = target: Gal(b1-4)GlcNAc(b1-2)Man(a1-3)[Gal(b1-4)GlcNAc(b1-2)Man(a1-6)][GlcNAc(b1-4)]Man(b1-4)GlcNAc(b1-4)[Fuc(a1-6)]GlcNAc
# How it was run: as §1
# [33] = target: Gal(b1-4)GlcNAc(b1-2)Man(a1-3)[GlcNAc(b1-2)Man(a1-6)]Man(b1-4)GlcNAc(b1-4)GlcNAc
# How it was run: as §1
# [34] = target: Gal(b1-4)GlcNAc(b1-2)Man(a1-3)[GlcNAc(b1-4)][Gal(b1-4)GlcNAc(b1-2)Man(a1-6)]Man(b1-4)GlcNAc(b1-4)GlcNAc
# How it was run: as §1
# [35] = target: Gal(b1-4)GlcNAc(b1-2)Man(a1-3)[Man(a1-6)]Man(b1-4)GlcNAc(b1-4)GlcNAc
# How it was run: as §1
# [36] = target: Gal(b1-4)GlcNAc(b1-2)Man(a1-6)Man(b1-4)GlcNAc(b1-4)GlcNAc
# How it was run: as §1
# [37] = target: Gal(b1-4)GlcNAc(b1-2)Man(a1-6)[GlcNAc(b1-2)Man(a1-3)]Man(b1-4)GlcNAc(b1-4)GlcNAc
# How it was run: as §1
# [38] = target: Gal(b1-4)GlcNAc(b1-2)Man(a1-6)[Man(a1-3)]Man(b1-4)GlcNAc(b1-4)GlcNAc
# How it was run: as §1
binder,measurement,setting,value
FliC (Clostridium difficile) (protein) MRVNTNVSALIANNQMGRNVNGQSKSMEKLSSGVRIKRAADDAAGLAISEKMRAQIKGLDQAGRNVQDGISVVQTAEGSLEETGNILQRMRTLSLQSANEINNTEEREKIADELTQLKDEIERISSSTEFNGKKLLDGTSSTIRLQVGASYGTNVSGTSNNNNEIKIQLVNTASIMASAGITTASIGSMKAGGTTGTDAAKTMVSSLDAALKSLNSSRAKLGAQQNRLESTQNNLNNTLENVTAAESRIRDTDVASEMVNLSKMNILVQASQSMLAQANQQPQGVLQLLG,glycan array binding signal (z-score),[1],0.909
same,glycan array binding signal (z-score),[2],0.051
same,glycan array binding signal (z-score),[3],0.006
same,glycan array binding signal (z-score),[4],-0.583
same,glycan array binding signal (z-score),[5],-0.058
same,glycan array binding signal (z-score),[6],-0.868
same,glycan array binding signal (z-score),[7],-0.574
same,glycan array binding signal (z-score),[8],-0.034
same,glycan array binding signal (z-score),[9],-0.373
same,glycan array binding signal (z-score),[10],-0.094
same,glycan array binding signal (z-score),[11],1.21
same,glycan array binding signal (z-score),[12],1.04
same,glycan array binding signal (z-score),[13],-0.337
same,glycan array binding signal (z-score),[14],0.088
same,glycan array binding signal (z-score),[15],0.961
same,glycan array binding signal (z-score),[16],-0.461
same,glycan array binding signal (z-score),[17],-0.147
same,glycan array binding signal (z-score),[18],-0.467
same,glycan array binding signal (z-score),[19],0.302
same,glycan array binding signal (z-score),[20],-0.511
same,glycan array binding signal (z-score),[21],-0.227
same,glycan array binding signal (z-score),[22],-0.515
same,glycan array binding signal (z-score),[23],0.396
same,glycan array binding signal (z-score),[24],-0.272
same,glycan array binding signal (z-score),[25],-0.24
same,glycan array binding signal (z-score),[26],-0.175
same,glycan array binding signal (z-score),[27],-0.102
same,glycan array binding signal (z-score),[28],-0.407
same,glycan array binding signal (z-score),[29],0.049
same,glycan array binding signal (z-score),[30],-0.215
same,glycan array binding signal (z-score),[31],-0.812
same,glycan array binding signal (z-score),[32],-0.641
same,glycan array binding signal (z-score),[33],-0.238
same,glycan array binding signal (z-score),[34],-0.312
same,glycan array binding signal (z-score),[35],-0.698
same,glycan array binding signal (z-score),[36],0.137
same,glycan array binding signal (z-score),[37],-0.929
same,glycan array binding signal (z-score),[38],0.554

# Retrieved one by one from above, three records:
binder,measurement,setting,value
FliC (Clostridium difficile) (protein) MRVNTNVSALIANNQMGRNVNGQSKSMEKLSSGVRIKRAADDAAGLAISEKMRAQIKGLDQAGRNVQDGISVVQTAEGSLEETGNILQRMRTLSLQSANEINNTEEREKIADELTQLKDEIERISSSTEFNGKKLLDGTSSTIRLQVGASYGTNVSGTSNNNNEIKIQLVNTASIMASAGITTASIGSMKAGGTTGTDAAKTMVSSLDAALKSLNSSRAKLGAQQNRLESTQNNLNNTLENVTAAESRIRDTDVASEMVNLSKMNILVQASQSMLAQANQQPQGVLQLLG,glycan array binding signal (z-score),[6],-0.868
same,glycan array binding signal (z-score),[20],-0.511
same,glycan array binding signal (z-score),[8],-0.034
